Consider 8 compounds from EP0115821A1, “Fluoran compounds” (HODOGAYA CHEMICAL CO., LTD., priority 1983, dated 1984).

The nature of series [1]: Color-development performance test of heat sensitive record sheets. The note with it: heat sensitive record sheet with bisphenol A, heated at 150°C for 5 seconds; for Developed color density: Macbeth reflex densitometer RD-514. Here is the method:
(§1) To 2.0 g of Compound (B) prepared in Example 1, 20 g of water and 20 g of an aqueous solution containing 10% by weight of polyvinyl alcohol were added. The mixture was dispersed and mixed in a ball mill at room temperature for 24 hours to obtain a slurry wherein the particle size of the compound was about 3 µm.
(§2) On the other hand, 7 g of bisphenol A was added to 10 g of water and 40 g of an aqueous solution containing 10% by weight of polyvinyl alcohol. The mixture was dispersed and mixed in a ball mill at room temperature for 24 hours to obtain a slurry.
(§3) Both slurries were mixed, and the mixture was uniformly dispersed and mixed at room temperature for 1 hour, whereby a slurry mixture was prepared. This slurry mixture was coated on one surface of a normal paper of 50 g/m^2 by means of a wire bar coater (wound wire: • 0.35 mm in diameter) in an amount of the coated compound being 1.5 g/m^2 of the paper. The coated paper was dried in air at room temperature, whereby a heat sensitive record sheet having a substantially colorless heat sensitive layer was obtained. This heat sensitive record sheet will be referred to as No. 1.
(§4) In the same manner, heat sensitive record sheets No. 2 and No. 3 were prepared by using Compounds (C) and (D).
(§5) Further, for the purpose of comparison, heat sensitive record sheets No. 4 to No. 8 were prepared in the same manner as above by using known 2-anilino-3-methyl-6-diethylamino-fluoran [Compound (E)], 2-anilino-3-methyl-6-N-methyl-N-cyclohexylamino-fluoran [Compound (F)], 2-benzylamino-6-diethylamino-fluoran [Compound (A-1)], 2-(2-chlorobenzylamino)-6-diethylamino-fluoran [Compound (A-2)] and 2-(4-chlorobenzylamino)-6-diethylamino-fluoran [Compound(A-3)].
Heat sensitive record sheets No. 1 to No. 3 and comparative sheets No. 4 to No. 8 were heated at a temperature of 150°C for 5 seconds, whereby the developed color hue, the developed color density and the initial color density were measured by means of Macbeth reflex densitometer RD-514 model with a visualfilter (Wratten # 106).

Series [2] can be described thus: Color-development characteristic test of heat sensitive record sheets. Conditions: heated from 70 to 160°C for 5 seconds under a load of 100 g/cm^2; calculated from temperature vs color density. The protocol:
as §1, §2, §3, §4, §5
Heat sensitive record sheets No. 1 to No. 3 and comparative sheets No. 4 to No. 8 were heated for color-development within the temparature range of from 70 to 160°C for 5 seconds, whereby the color density at each temperature was measured in the same manner as in the above test (1), and the color-development initiation temperature and the rising for the color-development were calculated from the relationship between the temperature and the color density.

`CCCCN(CCCC)c1ccc2c(c1)Oc1ccc(NCc3ccc(Cl)cc3)cc1C21OC(=O)c2ccccc21` (stereo not drawn) [Compound (D), 2-(4-chlorobenzylamino)-6-di-n-butylamino-fluoran]: in series [1], the Developed color hue result was “Greenish black” and the Developed color density is 1.18. Moreover, the “Color-development initiation temperature(°C)” value in series [2] is 88 °C.

For `CCN(CC)c1ccc2c(c1)Oc1ccc(NCc3ccccc3)cc1C21OC(=O)c2ccccc21` (stereo not drawn) [Compound (A-1), 2-benzylamino-6-diethylamino fluoran], in series [1], the Developed color hue result is reported as “Greenish black” and the Developed color density is on record as 1.12. Moreover, the “Color-development initiation temperature(°C)” value in series [2] is 96 °C.

Consider `CCCCN(CCCC)c1ccc2c(c1)Oc1ccc(NCc3ccccc3Cl)cc1C21OC(=O)c2ccccc21` (stereo not drawn) [Compound (B), 2-(2-chlorobenzylamino)-6-di-n-butylamino-fluoran], for which, in series [1], the Developed color hue result was “Greenish black” and the Developed color density is 1.15. The “Color-development initiation temperature(°C)” value in series [2] is 92 °C.

As for `CCN(CC)c1ccc2c(c1)Oc1ccc(NCc3ccc(Cl)cc3)cc1C21OC(=O)c2ccccc21` (stereo not drawn) [(A-3), 2-(4-chlorobenzylamino)-6-diethylamino fluoran], in series [1], the Developed color hue result is recorded as “Greenish black” and the Developed color density was 1.12. The “Color-development initiation temperature(°C)” value in series [2] was 95 °C.

On to `CCN(CC)c1ccc2c(c1)Oc1ccc(NCc3ccccc3Cl)cc1C21OC(=O)c2ccccc21` (stereo not drawn) [Compound (A-2), 2-(2-chlorobenzylamino)-6-diethylamino fluoran], for which, in series [1], the Developed color hue entry is on record as “Greenish black” and the Developed color density is 1.13. The “Color-development initiation temperature(°C)” value in series [2] is 96 °C.

Consider `Cc1cc2c(cc1Nc1ccccc1)C1(OC(=O)c3ccccc31)c1ccc(N(C)C3CCCCC3)cc1O2` (stereo not drawn) [Compound (F), 2-anilino-3-methyl-6-N-methyl-N-cyclohexylamino-fluoran], for which, in series [1], the Developed color hue result is listed as “Reddish black” and the Developed color density worked out at 1.10. For the same compound, in series [2], the “Color-development initiation temperature(°C)” value was 92 °C.

As to `CCCCN(CCCC)c1ccc2c(c1)Oc1ccc(NCc3cccc(Cl)c3)cc1C21OC(=O)c2ccccc21` (stereo not drawn) [Compound (C), 2-(3-chlorobenzylamino)-6-di-n-butylamino-fluoran], in series [1], the Developed color hue result is given as “Greenish black” and the Developed color density was 1.16. Besides, the “Color-development initiation temperature(°C)” value in series [2] is 91 °C.

Regarding `CCN(CC)c1ccc2c(c1)Oc1cc(C)c(Nc3ccccc3)cc1C21OC(=O)c2ccccc21` (stereo not drawn) [Compound (E), 2-anilino-3-methyl-6-diethylamino-fluoran], in series [1], the Developed color hue entry is reported as “Reddish black” and the Developed color density was 1.12. Moreover, the “Color-development initiation temperature(°C)” value in series [2] was 85 °C.
